Experiments:
[1] = tested on: mTORC1 downstream target pS6K; test: pS6K ELISA in patient-derived glioblastoma stem cells; format: cell-based, human; details: single dose of 10 µM, Figure 1B
Protocol: The GBMSC lines used were patient-derived from recurring tumors and gifted to us by Kevin Woolard DVM, PhD from the University of California Davis. The cell lines were named 0827 and 0923. 0827 is the only IDH1 WT cell line used in the main figures in the manuscript and is referred to as IDH1 wildtype in Figure 6. 923 is used only in appendix and is referred to as “IDH1 WT” in Appendix A Figure A1 and “GB SC 2” in Appendix A Figure A2. The 0827 and 923 GBM stem cells were cultured in Neurobasal A minimal media with 1X N-2 supplement, 1X B-27 supplement, 1X GlutaMAX, and (50 units/mL of penicillin/50 μg/mL of streptomycin) from Gibco (Gaithersburg, MD, USA), and human EGF and FGF-154 from Shenandoah Biotechnology (Warwick, PA, USA). The IDH1 mutant cell line was named 905 and will be referred to as IDH1 mutant or R132H IDH1 mutant. It is the only IDH1 mutant cell line used in the main figures. The IDH1 mutant Grade III astrocytoma was named BT 142 and is only used in the appendix figures. It is referred to as “IDH1 mutant” in Appendix A Figure A1 and “IDH1 mt 2” in Appendix A Figure A2. These cells were cultured in the same media as the IDH1 wildtype with the addition of 1 mL of 10 μg/mL PDGF. […] Patient-derived glioma stem cells were generated at the National Cancer Institute, National Institutes of Health (Bethesda, MD). […]

[2] = cited from earlier work
[3] = tested on: mTORC1 downstream target S6Kinase; test: pS6K ELISA (phospho-S6Kinase relative to total S6Kinase) in FL83B cells; format: cell-based, mouse; details: 2 h treatment, Figure 1A
Protocol: The Mus musculus (mouse) normal hepatocyte liver cell line (FL83B) was purchased from American Type Culture Collection (Manassas, VA, USA). FL83B cells were cultured in Dulbecco's modified Eagle's medium/Ham's F-12 50/50 Mix with L-glutamine and 15 mM HEPES and 10% fetal bovine serum (FBS), both from Corning (Fremont, CA, USA). The cell line was grown at the standard 37 °C and 5% CO2 conditions. All drug treatment was performed in the absence of pen/strep and FBS. The PathScan® Phospho-[…] (Thr389) Sandwich ELISA and PathScan® Total S6K Sandwich ELISA Kits were purchased from Cell Signaling Technologies (Danvers, MA). In addition, 200,000 cells/well were seeded onto 24-well plates and allowed to grow for 48 h; the media were changed to DMEM-F12 without FBS for the FL83B and standard Neurobasal for the Stem Cells, and cells were incubated for another 18 to 20 h. Cells were treated for two hours with tested compounds at indicated concentrations; the media were aspirated, and plates were washed once with ice-cold PBS. Cells were lysed with 200 μL of lysis buffer; lysates were transferred to a 96-well plate for ELISA. ELISA was performed according to manufacturer's instructions.

[4] = tested on: patient-derived GBMSC, IDH1 wildtype (0827); test: Cell viability, Trypan Blue Exclusion, IDH1 wildtype GBMSC (0827); format: cell-based; details: Homo sapiens; single agent, 48 h, three-parameter model, Figure 4
Protocol: The GBMSC lines used were patient-derived from recurring tumors and gifted to us by Kevin Woolard DVM, PhD from the University of California Davis. The cell lines were named 0827 and 0923. 0827 is the only IDH1 WT cell line used in the main figures in the manuscript and is referred to as IDH1 wildtype in Figure 6. 923 is used only in appendix and is referred to as “IDH1 WT” in Appendix A Figure A1 and “GB SC 2” in Appendix A Figure A2. The 0827 and 923 GBM stem cells were cultured in Neurobasal A minimal media with 1X N-2 supplement, 1X B-27 supplement, 1X GlutaMAX, and (50 units/mL of penicillin/50 μg/mL of streptomycin) from Gibco (Gaithersburg, MD, USA), and human EGF and FGF-154 from Shenandoah Biotechnology (Warwick, PA, USA). The IDH1 mutant cell line was named 905 and will be referred to as IDH1 mutant or R132H IDH1 mutant. It is the only IDH1 mutant cell line used in the main figures. The IDH1 mutant Grade III astrocytoma was named BT 142 and is only used in the appendix figures. It is referred to as “IDH1 mutant” in Appendix A Figure A1 and “IDH1 mt 2” in Appendix A Figure A2. These cells were cultured in the same media as the IDH1 wildtype with the addition of 1 mL of 10 µg/mL PDGF. […] Patient-derived glioma stem cells were generated at the National Cancer Institute, National Institutes of Health (Bethesda, MD). […]

Row | Structure (SMILES) | inhibition of mTORC1 (phosphorylation of pS6K) [1] | chemical liability after prolonged exposure [2] | concentration of maximum effect on pS6K ([3]; highest dose 10 µM) [µM] | concentration at which significant inhibition of pS6K begins ([3]; phospho-S6K relative to total S6K) [µM] | IC50 [4] [µM]
1 | C(=C\c1ccccc1)/CN1CCN(C(c2ccccc2)c2ccccc2)CC1 [cinnarizine] | inhibitory trend | can cause iatrogenic parkinsonism | 10 | 0.1 | 
2 | Fc1ccc(C(c2ccc(F)cc2)N2CCN(C/C=C/c3ccccc3)CC2)cc1 [flunarizine] |  |  |  |  | 6.8

Reference: paper PMC7761300, “Novel mTORC1 Inhibitors Kill Glioblastoma Stem Cells” (Pharmaceuticals, 2020)
